Assay results from PubChem BioAssay AID1347423 (Functional Genomics Laboratory (NCATS/FGL), 2020).
Screen size: about 52,000 sequences; about 210 (0.4%) were called active.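 How the source made its calls: active means gene whose silencing raises cell survival under the drug, median off-target-corrected z-score across its silencing RNAs 2 or more; inactive means the rest.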 Some of the results follow.

Test: Resistance to Poly (ADP-Ribose) Polymerase inhibitor: Gene Identification via Genome-wide siRNA Screen
Settings: mouse BRCA2 R2336H ES cells, olaparib, CellTiter-Glo viability; stronger effect = higher value
Method in brief: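 Genome-wide siRNA screen (3 siRNAs/gene, 20 nM) in mouse ES cells carrying hypomorphic BRCA2 R2336H; olaparib 500 nM added 48 h post-transfection, CellTiter-Glo viability 72 h later. Normalized to plate-median negative control; MAD z-scores, gene median, seed-adjusted.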

| Sequence | z-score |
| --- | --- |
| GCUGCUUUACUUAAGAGUUTT against Srf | inactive: -0.654 |
| CCUCUCAGAUGGUAUAUAATT against Olfr520 | inactive: 1.57 |
| GGAAUCGGCAGUCUCAUUCTT against AA408868 | inactive: -1.28 |
| GGAGAAAAAGUCCAAGUCGTT against AJ430384 | inactive: 1.82 |
| CGCCAGCUCUGAAUCCUUUTT against Olfr693 | inactive: 1.91 |
| GCAGAUCGAUUUUACCUCGTT against Bbp | inactive: -0.645 |
| GGUGAAUCAGCGUAAUGUATT against Nrbp | inactive: -1.97 |
| GGGUUUUGGAUGGCGAAUATT against Lgals7 | inactive: -1.19 |
| GGUACCGGCUGGAAAAUGATT against Inpp5b | inactive: -0.0994 |
| GGAUAGUCCAAAGUUUUGUTT against 1110034O07Rik | inactive: 0.918 |
| CGUGCUAGUCAACACCUCCTT against Cnnm4 | inactive: 0.164 |
| GGAAACAUCCAAGAAAAAUTT against Ap1s2 | inactive: -0.0628 |
| GUCCUACGUGCUUAGCUACTT against Endog | inactive: 0.985 |
| GGGCUAGGAGAAACUCCUCTT against 0610010K14Rik | inactive: 0.994 |
| GGAGGUUGAGGCAUUUAAATT against Ogfr | inactive: 0.318 |
| GGUGGAAACAGUUGUUAUGTT against Jag2 | inactive: 0.324 |
| GAAGGAAGAAUAUUGGCCCTT against 2810004A10Rik | inactive: -0.221 |
| GGGCUUCACAAUCCCAUGUTT against Olfr539 | inactive: -1.27 |
| GCAUUUCCUAUAAUCGUUGTT against Olfr360 | inactive: 0.859 |
| GGAGCUAGAGGUAGACCGUTT against D11Wsu47e | inactive: 0.791 |
| GGCUGAAUCGGCAUUUCCATT against Klhdc3 | inactive: -0.807 |
| GGCUUAUUCUCUGGUAUUUTT against Mpv17l | inactive: 0.0481 |
| GGCUAGUUGCCAUGAUGCATT against Spink3 | inactive: -0.773 |
| GCCACCUCAAAACAUAUCATT against Il12rb2 | inactive: -0.147 |
| GGCAAAAUUGGAAAGAGAATT against Gopc | inactive: 0.542 |
| GGAGCAAGACAUAUAGAAATT against Grcc9 | inactive: 0.182 |

| Sequence | z-score |
| --- | --- |
| GGCAUUGGAAGAUGCACAGTT against Scp2 | inactive: -0.42 |
| GGGAGAUUUUAGGUUUGGATT against A830053O21Rik | inactive: -1.86 |
| GGAGGCAGUCCUGUGUACATT against Paqr4 | inactive: -1.2 |
| GGAAAGCCUUGGCUACAUGTT against Olfr97 | inactive: -1.89 |
| GUCACUUGGCUUCCAUUGATT against Olfr510 | active: 1.19 |
| GGACAGAAAUGGUAAAGAATT against D3Jfr1 | inactive: 0.298 |
| GCUUUAUAAGGCUAUUGGATT against Rcl1 | inactive: -0.954 |
| GCGCAACCUGUGCUUUUCUTT against Hoxd10 | inactive: -1.6 |
| GGACAAGUUCUGUUGGUAUTT against Zfp275 | inactive: -1.18 |
| GCUGCUGGAGUGCAACUAATT against Tradd | inactive: -0.136 |
| GGACAAAGAUUGAAGAAUGTT against Mib1 | inactive: -0.878 |
| GCUUCAGCUCUGAUUAACGTT against Alox15b | inactive: 0.872 |
| GUCAUCUUCCUCCAGCACCTT against Olig2 | inactive: 0.115 |
| GGGCUCAAGAAAUAAAUCATT against Aspa | inactive: 0.961 |
| CGAGCAUGCUAAAUAUAUUTT against C330029B10Rik | inactive: -0.0722 |
| CCAGCCGUAUUACAACUACTT against Bpnt1 | inactive: -0.777 |
| CCAACUAAGUGAAAUUCCATT against Aspn | inactive: 0.333 |
| GGAGUAUAAUGCCUUGGUUTT against 1810020D17Rik | inactive: -0.799 |
| GCGGUUUUGUGUCAGGGACTT against 4833408A19Rik | inactive: 0.828 |
| GGUCAAAGGUGAAGAGAAATT against Chgb | inactive: -1.58 |
| GGCCAGUGCCUUUGUGAUGTT against Mtnr1b | inactive: -0.281 |
| GGCAGAAGUUAGCAUAAAUTT against 8030499H02Rik | inactive: -0.124 |
| CGCAGAGUUAAUUUCUUGUTT against Rchy1 | inactive: -1.03 |
| GGGAUUAUAGGAAAAUUCUTT against Nhlh1 | inactive: 0.679 |
| GCGCUCCUUCUGUGAUUCATT against Olfm4 | inactive: 0.887 |
| GUAAUUUAUCCUUUGCUGATT against Olfr378 | inactive: -0.145 |

| Sequence | z-score |
| --- | --- |
| GCCAUUUACAUUCCCAGGGTT against Gm741 | inactive: 0.238 |
| CCUUAGAACUGAGAUAAGUTT against BC030500 | inactive: 1.36 |
| UUUGUUGAUCUGUUCACCATT against Mbtps2 | inactive: 0.0472 |
| GGAAAUAGAGGAAAGAGAATT against Rbm17 | inactive: 0.542 |
| GGUUCAUGUAGCAGUGGAUTT against 0610042E07Rik | inactive: -1.2 |
| GGAAAUACUGGAUCAUCAATT against Cts3 | inactive: -0.186 |
| CCUUUAAGCUAAAUGAAGGTT against Scube2 | inactive: 0.684 |
| GCCCAGAUUGUGCUAACAUTT against Prkacb | inactive: -3.18 |
| GCUGGCCUAAGAGUCCCUUTT against Klra8 | inactive: -0.274 |
| GCAAAGCUUGAUAACAAUATT against Idh1 | inactive: 0.456 |
| CCACCAAUUUGUAAGUAUATT against D930038D03Rik | inactive: 0.697 |
| GGAUCACUACCAUGAAAACTT against Bace1 | inactive: -0.551 |
| GGCCAAAUCAUGGAUGCAGTT against Comt | inactive: -1.72 |
| GGACGACCAUGAACUUCCCTT against AW061290 | inactive: -0.916 |
| GGAGGGAUCUAAGGAACAGTT against Fgf8 | inactive: 0.0578 |
| CGGCAACUUCUUCAACAUATT against 1110028A07Rik | inactive: -0.104 |
| GCUUUGACUGGAAUGACGGTT against Pex7 | inactive: 0.46 |
| CCCAAGAUACCACUUCAUUTT against 2610034B18Rik | inactive: -0.742 |
| GGAUUUUCUUUCAGAUCCGTT against P2ry12 | inactive: 0.505 |
| CCCAGAGCAUGCCAUCAACTT against Orm3 | inactive: -0.0351 |
| GGCCCAACACCAUGAACAATT against 5730405M13Rik | inactive: -0.564 |
| CGCAAGGCAUUCUCUACUUTT against Olfr1029 | inactive: 1.15 |
| GGCCUUCAACUUGGUUAAGTT against U2af2 | inactive: -1.37 |
| GGUUAUCGUUCUUGUCAAUTT against Ifih1 | inactive: -0.0922 |
| GCAAUGAAGAGUAACCGCUTT against Pak2 | inactive: 0.14 |
| GCUGGACUAACAUUGCUGUTT against 1700111I05Rik | inactive: -0.335 |

| Sequence | z-score |
| --- | --- |
| GCUUGAUCGAAGAAAGACATT against Tdrd3 | inactive: -0.455 |
| GGAUCAUUAAACAACCUGATT against C130076O07Rik | inactive: 0.421 |
| GCAAUUUCUGUGUGAAGAATT against Ahcyl1 | inactive: -1.39 |
| GGUAUCCAACUGGUUUGUATT against Tgifx1 | inactive: -0.148 |
| GGUACUUAUGUGGAUUGGATT against 1500019C06Rik | inactive: -2.15 |
| CCCAUUUCACUUCAGUUUGTT against Osbp2 | inactive: -0.129 |
| GGUUGAUUUAGAGAGGGCCTT against Gprc5c | inactive: 0.084 |
| GCAAGGUAAGUUAGAUAUUTT against Armcx3 | inactive: -0.0113 |
| GCACCAUCAUAUGAUCACGTT against Cd83 | inactive: -0.122 |
| CGUCGUGGUUGGUAUGUAATT against Sacs | inactive: -0.148 |
| GGUGAAAUCGACAAUCAAGTT against Rpl10a | inactive: -2.72 |
| GGCAGCAAAAAGAAAAUCUTT against C730048C13Rik | inactive: 0.271 |
| GGUGUGUGCAGGACUAAAUTT against Cacng3 | inactive: 0.194 |
| GGUUUUGACCAGACCAUUATT against Lsm8 | inactive: -1.76 |
| GGUUUCUUUGCCUACCCAGTT against 5830434P21Rik | inactive: 0.0816 |
| GCCACUACCGAUUUUCCCUTT against Lctl | inactive: 1.68 |
| UGUGCAUAGUCAAUCUCAGTT against Bag5 | inactive: 0.918 |
| CCAAUUCACGUAUGACAAUTT against C3ar1 | inactive: 0.395 |
| GGUGCAAAGCUUGAAAAUGTT against Gpr150 | inactive: -0.86 |
| CGGAAUGAGUCUGCUGGUCTT against Mrgprg | inactive: 0.72 |
| GCUUGAUUUUUGACAGAGATT against Mdh1b | inactive: -2.19 |
| GGGAUAAAAUUCUACCUAATT against Htr2b | inactive: 0.00724 |
| GGACCUCGAUGAAACCAUCTT against Stx6 | inactive: 1.43 |
| GCCCAUGUAUCCAAAAGAATT against Lect1 | inactive: -1.18 |
| GGGUUGCCCAGAAUGUAAATT against Cga | inactive: -1.32 |
| GCUGAAACUAGACAUUAAGTT against Taf11 | inactive: 1.32 |

4 records drawn at random from those above:

| Sequence | z-score |
| --- | --- |
| GCAAUUUCUGUGUGAAGAATT against Ahcyl1 | inactive: -1.39 |
| GCACCAUCAUAUGAUCACGTT against Cd83 | inactive: -0.122 |
| GCUGAAACUAGACAUUAAGTT against Taf11 | inactive: 1.32 |
| CGGAAUGAGUCUGCUGGUCTT against Mrgprg | inactive: 0.72 |
